Experimental data published in US11666596B2, “Nucleotide, polypeptide and applications thereof” (THE FIRST AFFILIATED HOSPITAL, SUN YAT-SEN UNIVERSITY, priority 2017, dated 2023).
Part of at least one peptide drawing is inferred or uncertain, most often the ends. Ends that are not written are not given here.

Legend:
[1] = tested on: U251 glioma transplanted tumors; test: U251 tumor subcutaneously implanted in nude mice, intratumoral peptide injection; format: in vivo; details: 25 ug/tumor every other day, 7 medications, compared with shuffled-sequence control polypeptide; tumor volume and weight; FIG. 5
U251 glioma cells = test: Cell viability with CCK-8 after adding the synthetic polypeptide; format: cell-based; details: synthetic peptide 10 μM added for 4 hours, washed out, culture continued 72 hours, FIG. 4

MWRDSLCAAAGYALGAGTRLRSVLSSRKLQP [PTEN-31aa]
growth and formation of the tumors transplanted by glioma U251 [1]: significantly suppress | growth and proliferation of U251 glioma cells (U251 glioma cells): significantly suppress
